Results reported in PubChem BioAssay AID1671190 (National Center for Advancing Translational Sciences (NCATS), 2021).
The whole screen tested about 580,000 compounds, of which about 6,100 (1.1%) were called active. The shares of active, inactive and inconclusive entries below differ from those in the screen. Calls come from the whole dose curve; as a rule, active = well fitted inhibition curve with a large enough effect; inconclusive = small, poorly fitted or top-dose-only effect, or another doubt; inactive = no such curve, though single readings can be large or run the other way. Potencies of inconclusive entries are doubtful fits and often do not repeat.
% is set by controls: 0 for no effect and ±100 for the full control effect; potency is the fitted concentration of half-maximal effect.

The chains behind the UniProt entries cited, without tags or fusion partners. Where a name states a change or a piece, a line headed by the entry shows the natural chain unless it says otherwise.
UniProt P18054: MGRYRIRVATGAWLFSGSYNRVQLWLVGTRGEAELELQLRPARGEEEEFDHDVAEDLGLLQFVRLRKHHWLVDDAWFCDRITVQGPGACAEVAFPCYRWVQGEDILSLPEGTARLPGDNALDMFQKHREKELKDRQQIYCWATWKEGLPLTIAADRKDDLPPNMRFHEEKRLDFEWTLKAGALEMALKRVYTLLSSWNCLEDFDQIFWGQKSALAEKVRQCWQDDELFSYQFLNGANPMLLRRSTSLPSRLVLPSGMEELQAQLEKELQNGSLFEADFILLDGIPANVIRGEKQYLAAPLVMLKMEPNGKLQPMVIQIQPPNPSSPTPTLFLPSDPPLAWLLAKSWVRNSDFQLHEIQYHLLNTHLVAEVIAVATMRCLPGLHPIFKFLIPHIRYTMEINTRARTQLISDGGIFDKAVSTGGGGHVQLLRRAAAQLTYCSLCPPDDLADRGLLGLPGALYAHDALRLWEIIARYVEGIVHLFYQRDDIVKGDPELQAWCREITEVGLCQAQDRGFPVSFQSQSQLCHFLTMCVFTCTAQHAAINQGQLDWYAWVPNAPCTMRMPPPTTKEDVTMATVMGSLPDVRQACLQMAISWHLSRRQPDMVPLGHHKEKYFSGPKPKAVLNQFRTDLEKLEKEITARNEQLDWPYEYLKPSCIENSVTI

These compounds were tested against Polyunsaturated fatty acid lipoxygenase ALOX12 (Homo sapiens) (UniProt P18054) (assay: Primary qHTS assay for inhibitors of human arachidonate 12S-lipoxygenase (ALOX12): Round 2). Conditions: purified 12hLO, xylenol orange hydroperoxide absorbance; activity change, negative = inhibition: at 108 µM (top of the series) unless noted.
In short: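 Purified human 12hLO at 150 nM in 25 mM Hepes, 0.01% Triton X-100, pH 7.0, preincubated 15 min at room temperature with compound. Reaction started with 40 uM arachidonic acid, 30 min at room temperature. Hydroperoxide measured by Fe-xylenol orange, 573/405 nm absorbance ratio.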
`CCn1nnnc1SCC(=O)N1c2ccccc2Sc2ccccc21` was tested, and the Potency was inconclusive: 100 µM [inhibitor, single point].
For `COC(=O)c1c(-c2cc(OC)c(OC)c(OC)c2)c2ccnc(OCc3ncccn3)c2c(=O)n1Cc1ccnc(C)c1`, the Potency was inconclusive: 10 µM [inhibitor, full curve, poor fit].
For `CCN1C(=O)[C@H]2[C@@H](c3ccc(-c4ccc(Cl)c(Cl)c4)c(OC)c3)N[C@@](C)(C(=O)OC)[C@H]2C1=O`, the Potency was inconclusive: 28.2 µM [inhibitor, partial curve, poor fit].
`CN1CCN(CC(=O)Nc2ccc(Oc3ccccc3)cc2)CC1` was tested, and the “activity change, negative = inhibition” value was inactive: -1.43%.
In the case of `CCOc1ccc(NC(=O)CN(C)C(=O)c2ccc3nc(CC)c(CC)nc3c2)cc1OCC`, the Potency is reported as inconclusive: 126 µM [inhibitor, single point].
`CCOC(=O)c1ccc(NC(=O)c2c(NCc3cccs3)sc3c2CCCCC3)cc1` was tested, and the Potency was inconclusive: 39.8 µM [inhibitor, partial curve].
In the case of `CCC(c1nc(-c2ccc(C)nn2)no1)n1cccn1` (stereo not given), the “activity change, negative = inhibition” value is reported as inactive: 16.2%.
For `CCN1CCN(CCOc2ccc(Br)cc2C)CC1`, the Potency was inconclusive: 0.794 µM [inhibitor, full curve].
For `CC(C)NC(=O)CN(C)CC(O)COc1ccccc1F` (stereo not given), the Potency was inconclusive: 5.01 µM [inhibitor, full curve, poor fit].
In the case of `O=S(=O)(NCCc1csc2nc(-c3ccc(F)cc3)nn12)c1ccc(Br)cc1`, the “activity change, negative = inhibition” value is reported as inactive: -0.423%.
For `CCOC(=O)C1CCN(C(=O)Cn2nc(C)n3nc(-c4ccc(OC)cc4)cc3c2=O)CC1`, the “activity change, negative = inhibition” value was inactive: -9.32%.
With `O=C(Nc1ccc(OC(F)(F)F)cc1)c1cc(=O)c2ccccc2o1` the Potency was inconclusive: 89.1 µM [inhibitor, partial curve, poor fit].
In the case of `O=C1CCCN1CCCN1C(=O)[C@H]2CN(Cc3ccc(Cl)cc3)C[C@H]2C1=O`, the “activity change, negative = inhibition” value is reported as inactive: 48.5%.
In the case of `Cc1ccc(-c2nc(C#N)c(NCCN3CCCCC3)o2)cc1`, the Potency is reported as inconclusive: 44.7 µM [inhibitor, partial curve, poor fit].
In the case of `Nc1nc2sc3c(c2cc1C(=O)N1CCOCC1)CCCC3`, the Potency is reported as inconclusive: 1.78 µM [inhibitor, full curve, poor fit].
In the case of `CC(C)NC(=S)NN=C1CCC(C(C)(C)C)CC1` (stereo not given), the Potency is reported as inconclusive: 44.7 µM [inhibitor, partial curve, poor fit].
For `COc1cc(CCN2C(=O)c3cccc4cccc(c34)C2=O)c(S(=O)(=O)N2CCC(C)CC2)cc1OC`, the Potency was inconclusive: 0.0891 µM [inhibitor, full curve, poor fit].
For `O=C(CS(=O)(=O)Cc1ccccc1)Nc1nc2ccccc2s1`, the Potency was inconclusive: 44.7 µM [inhibitor, partial curve, poor fit].
`COC(=O)c1ccc(C(c2c(C)n(C)n(-c3ccccc3)c2=O)c2c(C)n(C)n(-c3ccccc3)c2=O)cc1` was tested, and the Potency was inconclusive: 31.6 µM [inhibitor, partial curve, poor fit].
In the case of `CN1C(=O)/C(=C/c2cn(CC(=O)NCc3ccco3)c3ccccc23)NC1=S`, the Potency is reported as inconclusive: 0.398 µM [inhibitor, full curve, poor fit].
`Cc1ccc(OCCNC(=O)[C@H]2O[C@@H](n3ccc(N)nc3=O)[C@H](O)[C@@H]2O)cc1C` was tested, and the Potency was inconclusive: 79.4 µM [inhibitor, single point].
For `N#Cc1ccc(C[B][B][B][B][B][B][B][B][B][B]Cc2ccc(C#N)cc2)cc1`, the Potency was inconclusive: 17.8 µM [inhibitor, full curve].
`COc1cccc(CN2CCC3(CC2)COc2ccccc2C(=O)N3)c1` was tested, and the Potency was inconclusive: 112 µM [inhibitor, single point].
In the case of `Cc1ccccc1NC(=S)NCc1ccccc1`, the Potency is reported as inconclusive: 31.6 µM [inhibitor, partial curve, poor fit].
For `Cc1ccc(Cn2c(CN3CCC(C(=O)NCc4ccccc4C)CC3)cc3ccccc32)cc1`, the Potency was inconclusive: 89.1 µM [inhibitor, partial curve, poor fit].
With `CNC(=O)c1c(NC(=O)c2ccc(S(=O)(=O)N3CC(C)OC(C)C3)cc2)sc2c1CCN(C(C)C)C2` (stereo not given) the Potency was inconclusive: 35.5 µM [inhibitor, full curve, poor fit].
With `Cc1ccc(CNc2nc(-c3ccco3)nn2S(C)(=O)=O)cc1` the “activity change, negative = inhibition” value was inactive: -4.11%.
With `O=C(NCc1cccs1)c1ccc(Cl)s1` the Potency was inconclusive: 100 µM [inhibitor, partial curve, poor fit].
In the case of `CCCCNC(=O)C1CC(c2ccc(C(F)(F)F)cc2)=NO1` (stereo not given), the Potency is reported as inconclusive: 0.199 µM [inhibitor, full curve, poor fit].
For `CC1=CC(C)C2(COC(CCc3ccccc3)OC2)C(C)C1` (stereo not given), the Potency was inconclusive: 6.31 µM [inhibitor, partial curve].
For `CCCCCCCCCCCCSCC(=O)O`, the Potency was inconclusive: 39.8 µM [inhibitor, single point].
For `CN(C)c1ccc(NC(=O)COC(=O)c2cc(=O)c3ccccc3o2)cc1`, the “activity change, negative = inhibition” value was inactive: -9.61%.
For `C=CCSC1=Nc2sccc2C2=NC(=O)CN12`, the Potency was inconclusive: 35.5 µM [inhibitor, partial curve, poor fit].
In the case of `CCOc1ccccc1CNC(=O)CCn1c(=O)c2cccn2c2ccc(F)cc21`, the Potency is reported as inconclusive: 44.7 µM [inhibitor, full curve, poor fit].
`CCOc1ccc(N(Cc2cc3ccc(C)cc3[nH]c2=O)S(=O)(=O)c2ccccc2)cc1` was tested, and the Potency was inconclusive: 4.47 µM [inhibitor, full curve, poor fit].
In the case of `CCOC(=O)C(C)N1C(=O)S/C(=C/c2cn(CC(=O)OC)c3ccccc23)C1=O` (stereo not given), the Potency is reported as inconclusive: 31.6 µM [inhibitor, partial curve].
In the case of `Cc1cc2nc(N3CCN(C(=O)c4cccs4)CC3)sc2cc1C`, the “activity change, negative = inhibition” value is reported as inactive: 13.3%.
In the case of `O=C(N1CCC2(CC1)[C@H](O)C[C@@H]2OCCO)C1(c2ccccc2)CCCC1`, the “activity change, negative = inhibition” value is reported as inactive: 4.92%.
`Cn1c(=O)c2c(ncn2CCOCCOc2ccccc2)n(C)c1=O` was tested, and the “activity change, negative = inhibition” value was inactive: -18.7%.
In the case of `CN(C)c1ccc(C=Cc2cnccn2)cc1`, the Potency is reported as inconclusive: 35.5 µM [inhibitor, partial curve, poor fit].
